According to PMC6411979:
No constants are given. Whether binding was seen depends on the method and setting. For some assays here: Binding seen in cells or lysates may run through a third protein. Some entries that bind do so weakly or less than the wild type.

The chains behind the UniProt entries cited, without tags or fusion partners.
UniProt Q12778: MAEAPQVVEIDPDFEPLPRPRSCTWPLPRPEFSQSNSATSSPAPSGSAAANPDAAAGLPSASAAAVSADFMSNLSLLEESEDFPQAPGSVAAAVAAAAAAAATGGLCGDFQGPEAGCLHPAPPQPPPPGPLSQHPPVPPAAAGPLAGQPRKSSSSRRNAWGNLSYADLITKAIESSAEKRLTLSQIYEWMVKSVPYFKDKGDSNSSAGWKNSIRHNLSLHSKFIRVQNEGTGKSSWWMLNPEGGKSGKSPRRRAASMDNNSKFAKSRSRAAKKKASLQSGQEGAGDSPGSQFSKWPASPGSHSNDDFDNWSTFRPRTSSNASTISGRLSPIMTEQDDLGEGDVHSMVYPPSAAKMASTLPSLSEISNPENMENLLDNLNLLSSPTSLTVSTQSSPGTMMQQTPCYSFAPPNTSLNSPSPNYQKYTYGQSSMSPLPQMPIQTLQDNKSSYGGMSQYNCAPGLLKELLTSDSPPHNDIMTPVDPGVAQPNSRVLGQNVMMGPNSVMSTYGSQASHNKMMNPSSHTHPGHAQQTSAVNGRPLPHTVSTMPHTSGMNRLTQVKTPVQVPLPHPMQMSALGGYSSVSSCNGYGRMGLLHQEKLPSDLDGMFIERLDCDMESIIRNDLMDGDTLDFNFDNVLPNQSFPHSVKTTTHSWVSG
UniProt Q01105: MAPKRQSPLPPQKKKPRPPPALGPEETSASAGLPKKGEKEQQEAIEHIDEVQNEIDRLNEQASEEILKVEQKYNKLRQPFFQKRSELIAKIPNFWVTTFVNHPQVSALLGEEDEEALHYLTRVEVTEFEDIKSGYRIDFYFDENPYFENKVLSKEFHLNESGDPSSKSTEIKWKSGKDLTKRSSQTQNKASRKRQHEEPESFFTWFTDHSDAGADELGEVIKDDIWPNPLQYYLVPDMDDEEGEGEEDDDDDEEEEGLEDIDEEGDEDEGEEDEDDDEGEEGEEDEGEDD

Legend:
[1] = molecular target: Flag-tagged FOXO1 (expressed in HEK293T) (UniProt Q12778); assay: co-IP; HEK293T cells co-transfected with Myc-SET and Flag-FOXO1 or Flag-FOXO1^KQ; whole cell extracts; immunoprecipitation with Flag (M2) affinity beads; Western blot for the Myc and Flag tags
GST-SET fusion protein = GST-SET fusion protein (UniProt Q01105); assay: pull-down; GST-SET immobilised on glutathione-agarose, incubated with purified Flag-tagged FOXO1 or FOXO1^KQ; bound proteins seen by Western blot with anti-Flag antibody; both purified

Row | binding [1] | binding (GST-SET fusion protein) | Substance
1 | binds |  | Myc-tagged SET (from UniProt Q01105 1-290)
2 |  | binds | Flag-tagged full-length wild type FOXO1 (purified) (from UniProt Q12778 1-655)
